From PubChem BioAssay AID248 (DTP/NCI, 2004)
The list shows only some results of the screen, not a fair sample: it gathers some chemical classes. Not every dose and run of a compound is shown. T/C is the treated group as % of the vehicle group. Some doses have a count of surviving animals in place of a T/C: the source holds a T/C of zero for them, seemingly a mark for toxic or unscored doses. Survivors were counted at the toxicity check, usually on the fifth day, unless a day is given; later deaths do not show. Schedules are NCI's codes, taken here to give the interval after Q, in days (D) or hours (H), and the number of doses after X. Where survival is the endpoint, the PubChem record calls one and a half times the control and up active, and a quarter to a half above the control has no call in these data; cut-offs in other NCI protocols can differ. Signs of the kind (2×) count equal records among those shown. Some doses were run more than once; their values stand side by side, smallest first. Some schedules carry Z or #; the key to these is not given. Some T/C values are followed by the survivors on the day toxicity was checked, most often the fifth; where neither a count nor a note follows, no animal had died by that day.

System: L1210 leukemia ip in BDF1 mice, survival T/C
Experiment: NCI In Vivo Anticancer Drug Screen. Data for tumor model L1210 Leukemia (intraperitoneal) in B6D2F1 (BDF1) mice
Settings: T/C endpoint: mean survival time, higher T/C = longer survival

For NC1CCCCC1.O=P(O)(NCCCO)N(CCCl)CCCl, the T/C (dose: 12.5 mg/kg/injection, schedule: Q01DX Z (ip), vehicle: methylcellulose (MC)) was 117 % of control, the T/C (dose: 12.5 mg/kg/injection, schedule: Q01DX Z (ip), vehicle: saline) was 114 % of control and the T/C (dose: 16.0 mg/kg/injection, schedule: Q03HX008 (ip), vehicle: saline) was 110 % of control. The T/C (dose: 16.0 mg/kg/injection, schedule: Q03HX016 (ip), vehicle: saline) was 107 % of control, the T/C (dose: 16.0 mg/kg/injection, schedule: Q03HX024 (ip), vehicle: saline) was 119 % of control and the T/C (dose: 25.0 mg/kg/injection, schedule: Q01DX Z (ip), vehicle: methylcellulose (MC)) was 126 % of control. The T/C (dose: 25.0 mg/kg/injection, schedule: Q01DX Z (ip), vehicle: saline) was 94 % of control, the T/C (dose: 31.0 mg/kg/injection, schedule: Q01DX009 (oral), vehicle: saline) was 110 % of control and the T/C (dose: 32.0 mg/kg/injection, schedule: Q01DX005 (ip), vehicle: saline) was 111 and 114 % of control. The T/C (dose: 32.0 mg/kg/injection, schedule: Q01DX009 (ip), vehicle: saline) was 119 % of control (2×), the T/C (dose: 32.0 mg/kg/injection, schedule: Q01DX009 (sc), vehicle: saline) was 98 % of control and the T/C (dose: 32.0 mg/kg/injection, schedule: Q03HX008 (ip), vehicle: saline) was 120 % of control. For the same compound, the T/C (dose: 32.0 mg/kg/injection, schedule: Q03HX016 (ip), vehicle: saline) was 130 % of control, the T/C (dose: 32.0 mg/kg/injection, schedule: Q03HX024 (ip), vehicle: saline) was 142 % of control and the T/C (dose: 50.0 mg/kg/injection, schedule: Q01DX Z (ip), vehicle: saline) was 104 % of control. The T/C (dose: 62.5 mg/kg/injection, schedule: Q01DX001 (ip), vehicle: clinical formulation) was 131 % of control, the T/C (dose: 62.5 mg/kg/injection, schedule: Q01DX001 (ip), vehicle: saline) was 118 % of control and the T/C (dose: 62.5 mg/kg/injection, schedule: Q01DX009 (oral), vehicle: saline) was 116 % of control. The T/C (dose: 64.0 mg/kg/injection, schedule: Q01DX005 (ip), vehicle: saline) was 128 and 134 % of control, the T/C (dose: 64.0 mg/kg/injection, schedule: Q01DX009 (ip), vehicle: saline) was 138 and 139 % of control and the T/C (dose: 64.0 mg/kg/injection, schedule: Q01DX009 (oral), vehicle: saline) was 111 % of control. The T/C (dose: 64.0 mg/kg/injection, schedule: Q01DX009 (sc), vehicle: saline) was 116 % of control, the T/C (dose: 64.0 mg/kg/injection, schedule: Q03HX008 (ip), vehicle: saline) was 145 % of control and the T/C (dose: 64.0 mg/kg/injection, schedule: Q03HX016 (ip), vehicle: saline) was 168 % of control. The T/C (dose: 64.0 mg/kg/injection, schedule: Q03HX024 (ip), vehicle: saline) was 207 % of control, the T/C (dose: 64.0 mg/kg/injection, schedule: Q04DX003 (ip), vehicle: saline) was 119 % of control and the T/C (dose: 64.0 mg/kg/injection, schedule: Q04DX003 (iv), vehicle: saline) was 104 % of control [9 of 10 alive]. For the same compound, the T/C (dose: 64.0 mg/kg/injection, schedule: Q## X003 (ip), vehicle: saline) was 120 % of control, the T/C (dose: 64.0 mg/kg/injection, schedule: Q## X024 (ip), vehicle: saline) was 104 % of control and the T/C (dose: 100.0 mg/kg/injection, schedule: Q01DX Z (ip), vehicle: methylcellulose (MC)) was 155 % of control. The T/C (dose: 100.0 mg/kg/injection, schedule: Q01DX Z (ip), vehicle: saline) was 110 and 155 % of control [5 of 6 alive], the T/C (dose: 125.0 mg/kg/injection, schedule: Q01DX001 (ip), vehicle: clinical formulation) was 141 % of control and the T/C (dose: 125.0 mg/kg/injection, schedule: Q01DX001 (ip), vehicle: saline) was 136 % of control. The T/C (dose: 125.0 mg/kg/injection, schedule: Q01DX009 (oral), vehicle: saline) was 118 % of control, the T/C (dose: 125.0 mg/kg/injection, schedule: Q01DX Z (ip), vehicle: saline) was 132 % of control and the T/C (dose: 128.0 mg/kg/injection, schedule: Q01DX001 (ip), vehicle: saline) was 120 and 127 % of control. The T/C (dose: 128.0 mg/kg/injection, schedule: Q01DX001 (iv), vehicle: saline) was 100 % of control, the T/C (dose: 128.0 mg/kg/injection, schedule: Q01DX001 (sc), vehicle: saline) was 121 % of control and the T/C (dose: 128.0 mg/kg/injection, schedule: Q01DX005 (ip), vehicle: saline) was 169 and 214 % of control. For the same compound, the T/C (dose: 128.0 mg/kg/injection, schedule: Q01DX009 (ip), vehicle: saline) was 175 and 213 % of control, the T/C (dose: 128.0 mg/kg/injection, schedule: Q01DX009 (oral), vehicle: saline) was 119 % of control and the T/C (dose: 128.0 mg/kg/injection, schedule: Q01DX009 (sc), vehicle: saline) was 118 % of control. The survivor count (dose: 128.0 mg/kg/injection, schedule: Q03HX008 (ip), vehicle: saline) was 1 of 10, the survivor count (dose: 128.0 mg/kg/injection, schedule: Q03HX016 (ip), vehicle: saline) was 4 of 10 and the survivor count (dose: 128.0 mg/kg/injection, schedule: Q03HX024 (ip), vehicle: saline) was 4 of 10. The T/C (dose: 128.0 mg/kg/injection, schedule: Q04DX003 (ip), vehicle: saline) was 142 % of control, the T/C (dose: 128.0 mg/kg/injection, schedule: Q04DX003 (iv), vehicle: saline) was 105 % of control [9 of 10 alive] and the T/C (dose: 128.0 mg/kg/injection, schedule: Q08DX002 (ip), vehicle: saline) was 125 % of control. For the same compound, the T/C (dose: 128.0 mg/kg/injection, schedule: Q## X002 (ip), vehicle: saline) was 134 % of control, the T/C (dose: 128.0 mg/kg/injection, schedule: Q## X003 (ip), vehicle: saline) was 135 % of control and the T/C (dose: 128.0 mg/kg/injection, schedule: Q## X008 (ip), vehicle: saline) was 112 % of control. The T/C (dose: 128.0 mg/kg/injection, schedule: Q## X016 (ip), vehicle: saline) was 110 % of control, the T/C (dose: 128.0 mg/kg/injection, schedule: Q## X024 (ip), vehicle: saline) was 117 % of control and the T/C (dose: 150.0 mg/kg/injection, schedule: Q01DX Z (ip), vehicle: saline) was 130 % of control. The T/C (dose: 176.0 mg/kg/injection, schedule: Q01DX001 (ip), vehicle: saline) was 159 % of control, the T/C (dose: 200.0 mg/kg/injection, schedule: Q01DX Z (ip), vehicle: saline) was 155 % of control and the T/C (dose: 225.0 mg/kg/injection, schedule: Q01DX Z (ip), vehicle: saline) was 229 % of control. The T/C (dose: 250.0 mg/kg/injection, schedule: Q01DX001 (ip), vehicle: clinical formulation) was 141 % of control, the T/C (dose: 250.0 mg/kg/injection, schedule: Q01DX001 (ip), vehicle: saline) was 136 % of control and the T/C (dose: 250.0 mg/kg/injection, schedule: Q01DX009 (oral), vehicle: saline) was 146 % of control. The T/C (dose: 256.0 mg/kg/injection, schedule: Q01DX001 (ip), vehicle: saline) was 150 and 160 % of control, the T/C (dose: 256.0 mg/kg/injection, schedule: Q01DX001 (iv), vehicle: saline) was 114 % of control and the T/C (dose: 256.0 mg/kg/injection, schedule: Q01DX001 (oral), vehicle: saline) was 106 % of control. The T/C (dose: 256.0 mg/kg/injection, schedule: Q01DX001 (sc), vehicle: saline) was 105 % of control.
